PubChem BioAssay AID1259279 – Sanger Institute, 2017
Test: 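Kinase-wide knock-down seeking synergy with BYL719, cetuximab or trametinib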 (primary screen). Cells: LS180 human colorectal cancer cells. Knock-down reagent: siRNA pool against human genes. Treatment: anchor drug BYL719 at 1 µM, cetuximab at 5 µg/ml or trametinib at 10 nM, or DMSO vehicle only. Measurement: 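Cell viability versus a non-targeting pool, as a fraction and as a robust z-score from replicate means, plus a synergy score for each of three drugs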. Reading the numbers: viability z-score, no drug: higher = more viable cells after knock-down; viability, no drug: higher = more viable cells; synergy score with BYL719 and synergy score with cetuximab and synergy score with trametinib: higher = stronger synthetic lethal synergy with drug. Rule for the call: 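a knock-down is called active, meaning essential, if its viability z-score in vehicle alone falls below -3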. Calls: active = essential (knock-down alone cuts viability); inactive = no change without drug.
The deposit covers 794 reagents; shown is an unselected part. In the full data, 11 (1.4%) were called active. 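Calls reflect knock-down alone in the vehicle arm, not drug synergy.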 A number with no mark means an inactive call. Viability is capped at 1. The record does not give: the amount of reagent, the time to read-out.

gene	PubChem SID	viability z-score, no drug	viability, no drug (fraction)	synergy score with BYL719	synergy score with cetuximab	synergy score with trametinib
TRIB2 (tribbles pseudokinase 2)	SID56479059	-0.891	0.809	0.068	0.0311	-0.0779
ITPKC (inositol-trisphosphate 3-kinase C)	SID56479112	0.86	1	-0.0177	0.0308	0.0881
RUNX1 (RUNX family transcription factor 1)	SID135620759	0.86	1	0.234	0.128	0.149
MAP4K1 (mitogen-activated protein kinase kinase kinase kinase 1)	SID56478699	-1.09	0.788	-0.0239	-0.00477	-0.0326
XYLB (xylulokinase)	SID152153831	-0.212	0.883	-0.106	-0.0981	-0.0156
STK4 (serine/threonine kinase 4)	SID56478776	0.86	1	-0.0858	-0.166	0.00109
CAMK1G (calcium/calmodulin dependent protein kinase IG)	SID56478930	0.86	1	-0.0459	-0.0769	-0.124
TGFBR2 (transforming growth factor beta receptor 2)	SID152152630	0.556	0.967	0.044	-0.000885	-0.0178
SMAD4 (SMAD family member 4)	SID134310148	0.647	0.977	-0.0124	0.0139	0.0755
TNK2 (tyrosine kinase non receptor 2)	SID56478482	0.86	1	-0.151	-0.162	-0.126
FASTK (Fas activated serine/threonine kinase)	SID56479004	-0.285	0.875	0.0321	-0.175	-0.0139
CAMKV (CaM kinase like vesicle associated)	SID135620973	0.86	1	0.0594	-0.0397	0.084
MAP4K4 (mitogen-activated protein kinase kinase kinase kinase 4)	SID56478747	0.86	1	-0.149	-0.162	-0.123
ADCK2 (aarF domain containing kinase 2)	SID56478993	-1.06	0.79	-0.0115	0.0421	-0.0607
PDIK1L (PDLIM1 interacting kinase 1 like)	SID152147170	-0.471	0.855	-0.103	-0.129	0.0101
ITK (IL2 inducible T cell kinase)	SID135620623	0.86	1	-0.0345	-0.0159	-0.0341
ACVRL1 (activin A receptor like type 1)	SID152155046	0.86	1	-0.115	-0.0725	-0.156

8 of these entries, set out differently:
{"gene": "RUNX1 (RUNX family transcription factor 1)", "PubChem SID": "SID135620759", "viability z-score, no drug": 0.86, "viability, no drug (fraction)": 1, "synergy score with BYL719": 0.234, "synergy score with cetuximab": 0.128, "synergy score with trametinib": 0.149}
{"gene": "MAP4K1 (mitogen-activated protein kinase kinase kinase kinase 1)", "PubChem SID": "SID56478699", "viability z-score, no drug": -1.09, "viability, no drug (fraction)": 0.788, "synergy score with BYL719": -0.0239, "synergy score with cetuximab": -0.00477, "synergy score with trametinib": -0.0326}
{"gene": "XYLB (xylulokinase)", "PubChem SID": "SID152153831", "viability z-score, no drug": -0.212, "viability, no drug (fraction)": 0.883, "synergy score with BYL719": -0.106, "synergy score with cetuximab": -0.0981, "synergy score with trametinib": -0.0156}
{"gene": "STK4 (serine/threonine kinase 4)", "PubChem SID": "SID56478776", "viability z-score, no drug": 0.86, "viability, no drug (fraction)": 1, "synergy score with BYL719": -0.0858, "synergy score with cetuximab": -0.166, "synergy score with trametinib": 0.00109}
{"gene": "CAMK1G (calcium/calmodulin dependent protein kinase IG)", "PubChem SID": "SID56478930", "viability z-score, no drug": 0.86, "viability, no drug (fraction)": 1, "synergy score with BYL719": -0.0459, "synergy score with cetuximab": -0.0769, "synergy score with trametinib": -0.124}
{"gene": "TGFBR2 (transforming growth factor beta receptor 2)", "PubChem SID": "SID152152630", "viability z-score, no drug": 0.556, "viability, no drug (fraction)": 0.967, "synergy score with BYL719": 0.044, "synergy score with cetuximab": -0.000885, "synergy score with trametinib": -0.0178}
{"gene": "SMAD4 (SMAD family member 4)", "PubChem SID": "SID134310148", "viability z-score, no drug": 0.647, "viability, no drug (fraction)": 0.977, "synergy score with BYL719": -0.0124, "synergy score with cetuximab": 0.0139, "synergy score with trametinib": 0.0755}
{"gene": "TNK2 (tyrosine kinase non receptor 2)", "PubChem SID": "SID56478482", "viability z-score, no drug": 0.86, "viability, no drug (fraction)": 1, "synergy score with BYL719": -0.151, "synergy score with cetuximab": -0.162, "synergy score with trametinib": -0.126}

Continued:
gene	PubChem SID	viability z-score, no drug	viability, no drug (fraction)	synergy score with BYL719	synergy score with cetuximab	synergy score with trametinib
ERN1 (endoplasmic reticulum to nucleus signaling 1)	SID135620914	0.34	0.943	0.129	-0.0511	0.184
MYLK (myosin light chain kinase)	SID152147192	-0.525	0.849	-0.198	-0.14	-0.0564
EPHA4 (EPH receptor A4)	SID152148822	-0.0113	0.905	-0.0322	-0.104	-0.0924
PCK2 (phosphoenolpyruvate carboxykinase 2, mitochondrial)	SID56479157	-0.23	0.881	-0.111	-0.265	0.0457
FLT3 (fms related receptor tyrosine kinase 3)	SID152150278	0.679	0.98	0.0686	-0.148	0.0347
LMBR1 (limb development membrane protein 1)	SID152149374	0.86	1	-0.131	-0.166	0.0482
MAP2K4 (mitogen-activated protein kinase kinase 4)	SID56478690	0.0407	0.911	-0.0971	-0.24	-0.0352
PFKFB1 (6-phosphofructo-2-kinase/fructose-2,6-biphosphatase 1)	SID135621245	-1.85	0.704	-0.0322	-0.0974	0.0046
CAMK2A (calcium/calmodulin dependent protein kinase II alpha)	SID56478931	0.413	0.951	-0.0912	-0.11	-0.0461
MARK1 (microtubule affinity regulating kinase 1)	SID152146970	-0.503	0.851	0.0444	-0.115	-0.0267
PRKCSH (PRKCSH beta subunit of glucosidase II)	SID56479239	0.215	0.93	-0.0371	-0.2	-0.0203
FOXP1 (forkhead box P1)	SID135620800	-2.76	0.605	-0.172	0.0377	0.0178
PDK2 (pyruvate dehydrogenase kinase 2)	SID56478952	0.549	0.966	-0.0359	-0.0194	0.025
PIP5KL1 (phosphatidylinositol-4-phosphate 5-kinase like 1)	SID56479217	0.176	0.925	-0.15	-0.0869	-0.0478
SYNCRIP (synaptotagmin binding cytoplasmic RNA interacting protein)	SID134320219	-0.00187	0.906	0.138	0.279	0.221
FGFR3 (fibroblast growth factor receptor 3)	SID56478513	-2.15	0.672	-0.14	-0.148	-0.211
PNKP (polynucleotide kinase 3'-phosphatase)	SID56479144	-0.518	0.85	-0.00575	0.0401	0.0603
ATM (ATM serine/threonine kinase)	SID152150358	0.426	0.953	0.0477	-0.0125	0.0326
RPS6KA4 (ribosomal protein S6 kinase A4)	SID152147672	-0.963	0.801	-0.143	0.0115	-0.0149
UCKL1 (uridine-cytidine kinase 1 like 1)	SID152149527	0.86	1	0.0559	-0.0847	0.00785
DGKQ (diacylglycerol kinase theta)	SID56478983	-2.77	0.604	-0.224	-0.224	-0.232
TNNI3K (TNNI3 interacting kinase)	SID56478945	0.86	1	-0.144	-0.166	-0.0447
CKB (creatine kinase B)	SID56479084	0.315	0.941	-0.233	-0.215	-0.204
CAMK2G (calcium/calmodulin dependent protein kinase II gamma)	SID56478805	0.86	1	-0.14	-0.131	-0.0993
IGF2R (insulin like growth factor 2 receptor)	SID152150296	0.86	1	-0.183	-0.149	-0.153
PTK6 (protein tyrosine kinase 6)	SID152152810	0.0611	0.913	-0.157	-0.0286	0.0223
SBK1 (SH3 domain binding kinase 1)	SID152154198	0.86	1	-0.0133	-0.0641	-0.064
CSNK1G1 (casein kinase 1 gamma 1)	SID152156369	-0.348	0.868	-0.174	-0.276	-0.0793
POLR2B (RNA polymerase II subunit B)	SID134315545	-2.12	0.676	-0.111	-0.258	-0.102
CHD4 (chromodomain helicase DNA binding protein 4)	SID152156048	-0.457	0.856	0.0292	0.22	0.0357
CSNK1G2 (casein kinase 1 gamma 2)	SID152151854	0.86	1	-0.125	-0.0169	0.12
CKMT1B (creatine kinase, mitochondrial 1B)	SID135621236	-0.878	0.81	-0.13	0.016	0.0282
CSNK1A1L (casein kinase 1 alpha 1 like)	SID135620867	0.156	0.923	-0.115	-0.0603	0.0105
